Reference: patent publication US20260193331A1
Results are given in words; binding and its absence hold for the method and conditions named. Some entries that bind do so weakly or less than the wild type.

Sequences of proteins named here, by UniProt entry; tags and fusion partners are left off. A change or cut given only in a name is not applied to a line headed by its entry.
UniProt O95994: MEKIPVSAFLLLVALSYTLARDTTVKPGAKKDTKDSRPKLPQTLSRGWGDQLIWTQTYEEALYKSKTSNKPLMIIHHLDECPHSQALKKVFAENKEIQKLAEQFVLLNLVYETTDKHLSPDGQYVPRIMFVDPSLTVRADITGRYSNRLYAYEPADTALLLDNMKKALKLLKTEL

Target: human AGR2 WT expressed on the yeast surface with a C-terminal HA tag (human) (UniProt O95994)
Assay: flow cytometry on yeast displaying human AGR2, 500 pM antibody

B1: TH-106 humanized monoclonal antibody (antibody, V domains shown)
VH: QVQLVQSGAEVKKPGASVKVSCKTSGYVFSRSWMNWVRQAPGQGLEWIGWIYPGDGDTNYNGKFKDRVTLTADKSTSTVYMELSSLRSEDTAVYFCARGGYDGSPWLSYWGQGTLVTVSS
VL: EIVLTQSPATLSLSPGERATLSCKASQDINSYLSWFQQKPGQAPRTLIYRANRLVDGIPARFSGSGSGQDFTLTISSLEPEDFAVYYCLQYDEFPFTFGGGTKVEIK
binding: binds
